Assay results taken from patent US20030143272A1, “Pharmaceutical tablet and process for making thereof” (priority 2001, published 2003).
Counter-ions that a name gives are not always drawn.

Assay: Dissolution in 500 mL deionized water at 37° C., 50-rpm paddle, UV analysis
Type: physicochemical
Conditions: IR layer of Example 1 tablet, deionized water 37° C., UV 232 nm

time for all cetirizine to dissolve: one
SMILES: O=C(O)COCCN1CCN(C(c2ccccc2)c2ccc(Cl)cc2)CC1 (stereo not shown) [cetirizine, cetirizine HCl]
